In paper PMC7819943, “Rice protein-binding microarrays: a tool to detect cis-acting elements near promoter regions in rice” one finds binding signal data, which are given here for 54 sequences.

The list shows a part of the results.

This test concerns the target T1, OsSMF1 (Oryza sativa, UniProt Q6ZLB0 1-436).
T1 sequence: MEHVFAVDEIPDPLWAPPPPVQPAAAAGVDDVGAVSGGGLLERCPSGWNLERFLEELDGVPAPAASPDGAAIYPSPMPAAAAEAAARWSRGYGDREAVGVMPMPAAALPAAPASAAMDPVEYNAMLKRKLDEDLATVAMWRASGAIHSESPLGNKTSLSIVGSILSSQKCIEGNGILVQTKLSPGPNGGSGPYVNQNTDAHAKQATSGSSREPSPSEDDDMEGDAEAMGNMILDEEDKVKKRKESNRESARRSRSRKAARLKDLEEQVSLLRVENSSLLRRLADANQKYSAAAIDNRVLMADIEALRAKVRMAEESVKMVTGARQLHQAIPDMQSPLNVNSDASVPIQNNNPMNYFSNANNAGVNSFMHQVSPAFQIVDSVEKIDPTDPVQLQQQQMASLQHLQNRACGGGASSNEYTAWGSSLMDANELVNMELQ
Description: protein-binding microarray (RPBM); PBS, 2% BSA, 51.3 ng/ul salmon testes DNA, 50 uM zinc acetate, 200 nM TF, 25 C, 1 h; high values mean tight binding. The settings on record: protein: recombinant; tags: N-terminal polyhistidine and DsRed monomer fusion (pET32a); chain copies: 2; label: CyDye5-dUTP incorporated in the synthesized complementary strand; 3' TTTTT single-stranded linker to array surface; dsDNA, one strand shown. In a few lines: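 In PBS with 2% BSA, salmon testes DNA and 50 µM zinc acetate, 200 nM protein was incubated on a custom Agilent array at 25 °C for 1 h and then washed off. The array had been made double-stranded by primer extension with Cy5-dUTP and blocked with 2% BSA. The proteins were transcription factors fused N-terminally to polyhistidine and DsRed, expressed in E. coli BL21-CodonPlus and purified on Ni–NTA. The binding signal is per-feature fluorescence intensity (arbitrary units) from an Axon 4000B scanner.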
“TTGAGCATAGTAAGTTTTGACCTATAGTGAGGCTGTACAACGGAGTCACCTAGTGCAG”: the binding signal was 3290 fluorescence intensity (a.u.).
The value for “GCCATGGGCTCGTCACGCAAGCAAAATTCCTCATTTCTCACGGAGTCACCTAGTGCAG” was 28500 fluorescence intensity (a.u.); that for “ACACCCACAATGGTTATCTATAAGCTCTCTACAAGAGATCCGGAGTCACCTAGTGCAG” was 30200 fluorescence intensity (a.u.).
The value for “GGGAACGGTGACCATGTATCTTCTGGCTGGTGATGTGTGACGGAGTCACCTAGTGCAG” was 6030 fluorescence intensity (a.u.).
The value for “AGCTGCTCTTGCTCTTCCTGCTCCGCCGTCACCTCCACCACGGAGTCACCTAGTGCAG” was 3350 fluorescence intensity (a.u.); that for “TTCGCCGGCGCCGTCGTGTCGTTCGCCGTCTGCAAGCACGCGGAGTCACCTAGTGCAG” was 3400 fluorescence intensity (a.u.).
Regarding “ATGCAGGATGGCATCATGAGAACTGTTGGATCATTATCAGCGGAGTCACCTAGTGCAG”, the binding signal was 3370 fluorescence intensity (a.u.).
The value for “TAGACTTAGACATTTCGGCTTATAAGTTGGCTTATAAGCACGGAGTCACCTAGTGCAG” was 33000 fluorescence intensity (a.u.).
Next, “AGAAGAATACGGTACGATGGGCCTAATGGAAGCCCATTGACGGAGTCACCTAGTGCAG”: 4860 fluorescence intensity (a.u.); “AATAATTCCCTTGACTAGCTAGTGCTTGACCTGTCAAAGCCGGAGTCACCTAGTGCAG”: 3980 fluorescence intensity (a.u.).
As for “TATAAACAAACCACTCGCCGCGCCGCATCAGTCGTAACCACGGAGTCACCTAGTGCAG”, the binding signal is 3840 fluorescence intensity (a.u.).
The value for “GATACGCTTAACAACATATGACGTGGCACCCACCGCTACCCGGAGTCACCTAGTGCAG” was 18100 fluorescence intensity (a.u.); that for “ACGAATTTGCAAGACAGTAGACAGGTACGTGTCAAATTGCCGGAGTCACCTAGTGCAG” was 7080 fluorescence intensity (a.u.).
The value for “GATGGCAATGGGGCCCCGTTCCCCGTCACCCGGTGGGGAACGGAGTCACCTAGTGCAG” was 3140 fluorescence intensity (a.u.); that for “ATAAGACCGTGTCATTGTCCAAAACGATGACGCGGTTGCACGGAGTCACCTAGTGCAG” was 7750 fluorescence intensity (a.u.); that for “GAACCCACATCCCACCATGACGCGCAATTACCTCATTATCCGGAGTCACCTAGTGCAG” was 3720 fluorescence intensity (a.u.).
For the sequence “TAACACTACTTGTTGTAAGTAATCTGTTGAGTTTCTTTCTCGGAGTCACCTAGTGCAG”, the binding signal is 3650 fluorescence intensity (a.u.).
The value for “TCGGCAAGCTGAGACGGCTAGTGAACCTATCAGCCATCAGCGGAGTCACCTAGTGCAG” was 15900 fluorescence intensity (a.u.); that for “GTGAATACTAAATATGTCAGTATATACGTCAGTCAGTCGTCGGAGTCACCTAGTGCAG” was 4320 fluorescence intensity (a.u.).
Next, “CCCATAAATGATGATTGACATGTGGGGCCCCACCACTCTCCGGAGTCACCTAGTGCAG”: 4270 fluorescence intensity (a.u.); “AGAGCAAGGCGCCGGTGGTGCTCATCAAGCCGTCGGCGACCGGAGTCACCTAGTGCAG”: 63100 fluorescence intensity (a.u.); “TTGGATCTAAACACAGCCTGAGTCACTGGATCTGGACTTGCGGAGTCACCTAGTGCAG”: 4770 fluorescence intensity (a.u.).
Next, “GGGAGCAGGGCAGCGGCGATGAGGGCGGCGGAGAGGCAGGCGGAGTCACCTAGTGCAG”: 20100 fluorescence intensity (a.u.); “CGTCCGGCGTCGGCGTGGACGGGTCGGCGCGGCGCCCCACCGGAGTCACCTAGTGCAG”: 3650 fluorescence intensity (a.u.); “ACATGGGGAAAACCAGGGACTAAAACTGTAATCAAACAGTCGGAGTCACCTAGTGCAG”: 29500 fluorescence intensity (a.u.).
Turning to “TCCGGATAAGCTCATCAGGAGTGCATCTACTACCATCTTCCGGAGTCACCTAGTGCAG”, the binding signal was 27700 fluorescence intensity (a.u.).
Next, “TGGATTACCGGGACAAACAACAATCATCATCACCTCGGGACGGAGTCACCTAGTGCAG”: 3480 fluorescence intensity (a.u.); “TAACAGTTTAACACCGGCAGTGACGAGTTAGTTATCTTTTCGGAGTCACCTAGTGCAG”: 3470 fluorescence intensity (a.u.).
Consider “AGTGGATGATGATGTGGCATCTTGTTAGTGGATGATGATGCGGAGTCACCTAGTGCAG”, for which the binding signal is 14700 fluorescence intensity (a.u.).
The value for “CTTGCCTTTTCTGACTCGCTCTCTCTCTCTCTCTCTATATCGGAGTCACCTAGTGCAG” was 3790 fluorescence intensity (a.u.); that for “AAAAGAGTTGCATATTATAAAAGCTTGTTTAATGATAAATCGGAGTCACCTAGTGCAG” was 31400 fluorescence intensity (a.u.).
Next, “CGCAGAGCGGCTGCAACTCAATGCCAGGTGGGCCAGGTCACGGAGTCACCTAGTGCAG”: 5260 fluorescence intensity (a.u.); “GAACCTGCACGACCAACTCCTCCTCCACAGCCTCTCTCTCCGGAGTCACCTAGTGCAG”: 3160 fluorescence intensity (a.u.).
The value for “ATACCGCGACAATGACATCTGAGTCAATGACTCGTGATAACGGAGTCACCTAGTGCAG” was 4510 fluorescence intensity (a.u.).
With “TGCTGTAGCTTAGCTCCACTGTCCCTGACGCACACACTGTCGGAGTCACCTAGTGCAG”, the binding signal was 4360 fluorescence intensity (a.u.).
The value for “TAGTGGATCGTGACCAATGAAATCTATGCATACGCATGATCGGAGTCACCTAGTGCAG” was 3180 fluorescence intensity (a.u.); that for “GACGATCGCTCGCCATCTCTCGTCGCCCAACTGGAGTAGTCGGAGTCACCTAGTGCAG” was 21500 fluorescence intensity (a.u.).
The value for “TGACGGCCCCACCTAGAGGTGGCCCCACACGTCATACTCTCGGAGTCACCTAGTGCAG” was 10600 fluorescence intensity (a.u.).
The value for “GAAGGACGGGTTCACCGTCAAGGGCCCCTTCGTGCTGGCGCGGAGTCACCTAGTGCAG” was 4190 fluorescence intensity (a.u.); that for “CTCCTTCGTCGCCTCTGCGACCGCCACGCGCCACCCATCTCGGAGTCACCTAGTGCAG” was 4900 fluorescence intensity (a.u.); that for “ACGCGACGTTCGTGTTATATTTACACCGGTCTCGCGTGTCCGGAGTCACCTAGTGCAG” was 3260 fluorescence intensity (a.u.).
For “CGCGTGCCGCTCTTGCACTAGAGATAAGACTACGTGGCACCGGAGTCACCTAGTGCAG”, the binding signal is 5580 fluorescence intensity (a.u.).
The value for “GGGCGCTTGGTGGCGGTGGGGCGTCGAGGGCGGGCGGCAGCGGAGTCACCTAGTGCAG” was 5000 fluorescence intensity (a.u.); that for “TTTGCCATTAGCGTACTCACCTAATCTAATCATCGGATTACGGAGTCACCTAGTGCAG” was 48900 fluorescence intensity (a.u.).
For “TATTGTCAGCCTATGGCCCAGGTCATACTGAAAAGTGGATCGGAGTCACCTAGTGCAG”, the binding signal is 3260 fluorescence intensity (a.u.).
The value for “CCCAAGTGCTCTGTGACGACGCCGTCGACATGCGGCAATACGGAGTCACCTAGTGCAG” was 3300 fluorescence intensity (a.u.); that for “AAGTCCATGAATCTGCAGTGCGGATTTGGCCGCATTCTGACGGAGTCACCTAGTGCAG” was 3320 fluorescence intensity (a.u.); that for “GCATGTACAGACGTGGAGACACCTCGGATTGAAGCCAGCCCGGAGTCACCTAGTGCAG” was 11000 fluorescence intensity (a.u.).
Next, “GAACACTCCAAGTGGCAAAATTACCTCGACACGTGTCGCGCGGAGTCACCTAGTGCAG”: 13400 fluorescence intensity (a.u.).
The value for “GTCGATTTTCAATCTGACGCCGCTTGTAGATGCATTGACTCGGAGTCACCTAGTGCAG” was 5660 fluorescence intensity (a.u.); that for “AGCCCAGTGCCAAGATATTTTGAGACGGACGTCACAAGCCCGGAGTCACCTAGTGCAG” was 3890 fluorescence intensity (a.u.).
For “TCTGAATCCTAATCTCAGCCACAAGGAGATGTTCATGCCACGGAGTCACCTAGTGCAG”, the binding signal is 15700 fluorescence intensity (a.u.).
With “GGGAGGAGGAAGAAGGGATAAGGGATGATGATACGTGGGACGGAGTCACCTAGTGCAG”, the binding signal was 3680 fluorescence intensity (a.u.).
Next, “GACCATGGCAATTGCGTGCATGACGACGGAATGGGAAGAGCGGAGTCACCTAGTGCAG”: 4340 fluorescence intensity (a.u.).
